Results as given in PubChem BioAssay AID651768 (National Center for Advancing Translational Sciences (NCATS), 2012).
About 1,700 (0.47%) of roughly 360,000 compounds were called active. This list was built around the results that the source calls inconclusive (neither active nor inactive); the mix of calls is not that of the screen. Calls come from the whole dose curve; as a rule, active = well fitted inhibition curve with a large enough effect; inconclusive = small, poorly fitted or top-dose-only effect; inactive = no such curve, though single readings can be large or run the other way. A potency beside an inconclusive call is a rough fit, not a confirmed value.
% is set by controls: 0 for no effect and ±100 for the full control effect; potency is the fitted concentration of half-maximal effect.
Note: nearly all actives have a fitted effect of over 55% in size.

Amino acid sequences for entries named in this document (tags omitted).
UniProt Q14191, whole entry, looked up: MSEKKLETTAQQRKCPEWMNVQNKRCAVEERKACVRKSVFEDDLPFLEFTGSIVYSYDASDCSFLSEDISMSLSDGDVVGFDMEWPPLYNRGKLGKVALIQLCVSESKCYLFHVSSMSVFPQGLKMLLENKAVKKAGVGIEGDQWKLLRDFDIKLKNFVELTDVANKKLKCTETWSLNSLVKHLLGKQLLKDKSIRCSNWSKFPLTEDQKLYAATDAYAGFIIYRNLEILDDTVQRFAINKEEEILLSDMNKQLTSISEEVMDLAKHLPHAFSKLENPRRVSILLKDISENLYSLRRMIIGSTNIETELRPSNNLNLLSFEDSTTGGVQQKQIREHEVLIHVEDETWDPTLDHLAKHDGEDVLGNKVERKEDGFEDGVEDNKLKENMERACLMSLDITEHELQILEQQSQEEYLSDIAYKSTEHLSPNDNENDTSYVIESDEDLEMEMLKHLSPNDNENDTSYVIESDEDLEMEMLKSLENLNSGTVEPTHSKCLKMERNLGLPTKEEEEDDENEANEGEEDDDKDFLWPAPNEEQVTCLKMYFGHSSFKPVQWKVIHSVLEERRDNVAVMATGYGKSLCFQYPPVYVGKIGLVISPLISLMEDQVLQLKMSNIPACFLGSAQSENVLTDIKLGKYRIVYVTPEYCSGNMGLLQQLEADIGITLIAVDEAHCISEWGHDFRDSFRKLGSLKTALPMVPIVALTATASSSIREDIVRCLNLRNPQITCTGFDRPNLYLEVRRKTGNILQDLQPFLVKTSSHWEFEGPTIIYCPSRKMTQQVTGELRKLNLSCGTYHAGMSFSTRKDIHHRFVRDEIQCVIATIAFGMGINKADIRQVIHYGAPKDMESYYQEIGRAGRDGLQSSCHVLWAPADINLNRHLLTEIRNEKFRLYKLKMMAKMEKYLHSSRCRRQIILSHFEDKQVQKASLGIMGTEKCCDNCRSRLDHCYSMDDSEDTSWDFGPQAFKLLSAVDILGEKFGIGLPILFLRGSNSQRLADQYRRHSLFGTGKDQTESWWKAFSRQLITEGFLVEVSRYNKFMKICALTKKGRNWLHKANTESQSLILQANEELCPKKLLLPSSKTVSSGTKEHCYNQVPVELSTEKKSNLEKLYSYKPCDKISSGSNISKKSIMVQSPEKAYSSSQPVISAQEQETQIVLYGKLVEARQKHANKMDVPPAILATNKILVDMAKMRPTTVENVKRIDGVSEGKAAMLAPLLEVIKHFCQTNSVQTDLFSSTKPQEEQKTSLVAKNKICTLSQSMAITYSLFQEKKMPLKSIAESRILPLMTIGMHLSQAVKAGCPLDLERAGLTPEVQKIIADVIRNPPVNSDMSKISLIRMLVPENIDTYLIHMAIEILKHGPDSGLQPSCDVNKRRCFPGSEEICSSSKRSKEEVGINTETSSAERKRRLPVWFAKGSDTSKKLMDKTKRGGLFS

The molecules below were run against Bifunctional 3'-5' exonuclease/ATP-dependent helicase WRN (Homo sapiens) (UniProt Q14191) (assay: qHTS for Inhibitors of WRN Helicase). Conditions: WRN helicase unwinding, fluorescent forked duplex, kinetic; activity change, negative = inhibition: at 114 µM (top of the series) unless noted.
How it was run: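 Fluorescence dequenching readout, ex 525 nm/em 598 nm, kinetic mode: forked duplex DNA (100 nM final) with adjacent fluorophore and quencher unwound by WRN (20 nM final) with 2 mM ATP. Compound preincubation 15 min, room temperature.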
`Cc1cnc(N2C(=O)c3ccc([N+](=O)[O-])cc3C2=O)s1` was tested, and the Potency was inconclusive: 79.4 µM [inhibitor, partial curve].
For `COc1ccc(CCNc2nc(-c3ccc(F)cc3)c(CC(=O)O)s2)cc1OC`, the Potency was inconclusive: 56.2 µM [inhibitor, partial curve].
In the case of `O=C(NC(NNc1ccc([N+](=O)[O-])cc1)(C(F)(F)F)C(F)(F)F)c1ccc(F)cc1`, the Potency is reported as inconclusive: 50.1 µM [inhibitor, partial curve].
`N=C(N)c1ccc(N=Nc2c(O)ccc3c2[nH]c2ccccc23)cc1` was tested, and the Potency was active: 11.2 µM.
`CCOC(=O)c1c(C)[nH]c(C(=O)OCc2ccccc2F)c1C` was tested, and the “activity change, negative = inhibition” value was inactive: 9.25%.
In the case of `c1ccc(-c2ccccc2OCCN2CCOCC2)cc1`, the Potency is reported as inconclusive: 17.8 µM [inhibitor, full curve].
In the case of `COc1ccc2c3c([nH]c2c1)[C@H]1C[C@H]2[C@H](C[C@@H](O)[C@H](OC)[C@H]2C(=O)O)CN1CC3`, the Potency is reported as inconclusive: 100 µM [inhibitor, partial curve, poor fit].
In the case of `NC(=O)C(CC(=O)O)NC(=O)[C@@H]1CCCNc2c(I)cc([N+](=O)[O-])cc2C(=O)N[C@@H](CO)C(=O)N[C@@H](Cc2ccc(O)cc2)C(=O)N1` (some centres undefined), the Potency is reported as inconclusive: 56.2 µM [inhibitor, partial curve].
In the case of `CC(=O)c1c(CC(=O)O)[nH]n(-c2nc3ccccc3s2)c1=O`, the Potency is reported as inconclusive: 50.1 µM [inhibitor, partial curve].
In the case of `CCCN1C(=O)/C(=C/c2nc3ccccc3c(=O)[nH]2)c2ccccc21`, the Potency is reported as inconclusive: 22.4 µM [inhibitor, single point].
For `C=CCNc1nc(C(=O)OCC(=O)c2ccc(C)c([N+](=O)[O-])c2)cs1`, the Potency was inconclusive: 39.8 µM [inhibitor, full curve, poor fit].
With `Cn1ccnc1Sc1cc(NCCCO)c([N+](=O)[O-])c2nonc12` the Potency was inconclusive: 89.1 µM [inhibitor, single point].
With `NC(=O)C1CC(=O)N(c2ccc(OCc3ccc(Cl)cc3)cc2)C1` (centres undefined) the “activity change, negative = inhibition” value was inactive: 1.83%.
For `O=C(Nc1cccc([N+](=O)[O-])c1)c1ccc2nc(N3C(=O)CCC3=O)sc2c1`, the Potency was active: 44.7 µM.
`CCNC(=S)N/N=C/c1sc(N2CCCCC2)nc1-c1cccs1` was tested, and the Potency was inconclusive: 39.8 µM [inhibitor, single point].
`CN1/C(=C\P(=O)(N(C)C)N(C)C)C(C)(C)c2ccccc21` was tested, and the Potency was active: 50.1 µM.
With `Cc1ccc(C)c(N2CCN(S(=O)(=O)c3ccc4c(c3)C(C)(C)C(=O)N4C)CC2)c1` the “activity change, negative = inhibition” value was inactive: -3.43%.
`Cc1ccc(C(=O)CC(C(=O)O)c2cn(CCC#N)c3ccccc23)cc1` (centres undefined) was tested, and the “activity change, negative = inhibition” value was inactive: -5.3%.
For `C=CCn1c(SCC(=O)NCc2ccc3c(c2)OCO3)nc2scc(-c3ccccc3)c2c1=O`, the “activity change, negative = inhibition” value was inactive: 7.24%.
In the case of `O=C(O)CNS(=O)(=O)c1ccc2c3c(cccc13)C(=O)N2`, the Potency is reported as active: 56.2 µM.
In the case of `Cc1ccc(-c2csc(NC(=O)c3ccc(Br)cc3)c2C(=O)O)cc1`, the “activity change, negative = inhibition” value is reported as inactive: -18.2%.
`O=C1/C(=C\c2c(NCCOCCO)nc3ccccn3c2=O)SC(=S)N1Cc1ccco1` was tested, and the Potency was active: 22.4 µM.
In the case of `Cc1ccc(NC(=O)c2cc3c(s2)CCCC3)cc1`, the “activity change, negative = inhibition” value is reported as inactive: -12.5%.
`Cc1cccc2sc(N(CCCN(C)C)C(=O)c3ccc(S(=O)(=O)N4CCc5ccccc5C4)cc3)nc12` was tested, and the Potency was inconclusive: 22.4 µM [inhibitor, full curve, poor fit].
For `CC1CCc2c(sc(NC(=O)c3ccc(Cn4cc([N+](=O)[O-])cn4)o3)c2C#N)C1` (centres undefined), the Potency was inconclusive: 50.1 µM [inhibitor, partial curve].
For `Cc1nn(-c2ccccc2)c(C)c1/C=C/C(=O)OCC(=O)Nc1ncc(Cl)cc1Cl`, the Potency was inconclusive: 28.2 µM [inhibitor, single point].
In the case of `Cc1cc2c(N)cccc2nn1`, the Potency is reported as inconclusive: 70.8 µM [inhibitor, single point].
For `COc1ccc(-c2cn3cccnc3n2)cc1NC(=O)c1cccs1`, the Potency was inconclusive: 20 µM [inhibitor, single point].
With `COc1cc(/C=N/NS(=O)(=O)c2ccc(C)c([N+](=O)[O-])c2)cc([N+](=O)[O-])c1O` the “activity change, negative = inhibition” value was inactive: -19.5%.
With `CN(c1ccccc1)S(=O)(=O)c1ccc(Cl)c(C(=O)OCC(=O)NCc2ccco2)c1` the Potency was inconclusive: 50.1 µM [inhibitor, partial curve].
In the case of `O=C(CN(Cc1cccs1)S(=O)(=O)c1ccc(S(=O)(=O)NC2CCCCC2)cc1)Nc1ccccc1`, the Potency is reported as inconclusive: 11.2 µM [inhibitor, partial curve].
`N#C/C(=C/c1ccc(-c2ccccc2)o1)c1nc(-c2cccs2)cs1` was tested, and the Potency was inconclusive: 79.4 µM [inhibitor, partial curve].
With `O=C(NN1C(=O)CSC1=S)C(=O)NN1C(=O)CSC1=S` the Potency was active: 22.4 µM.
For `NC(=O)C1CCN(C(=O)CCc2nc3sc4c(c3c(=O)[nH]2)CCCC4)CC1`, the Potency was inconclusive: 35.5 µM [inhibitor, single point].
With `CC(=O)Nc1ccc(SCC(=O)NC(=O)c2ccccc2Br)cc1` the Potency was inconclusive: 17.8 µM [inhibitor, single point].
In the case of `CC(OC(=O)c1cc(O)c2ccccc2c1O)C(=O)Nc1ccc(C(N)=O)cc1` (centres undefined), the Potency is reported as inconclusive: 56.2 µM [inhibitor, partial curve].
In the case of `O=C1CSc2ccc(S(=O)(=O)NCc3ccccc3Cl)cc2N1`, the “activity change, negative = inhibition” value is reported as inactive: -6.28%.
